This assay concerns the target T1, Membrane associated RING finger protein 5 (MARCH5) (human (in human OC cell lines)) (UniProt Q9NX47).
T1 sequence: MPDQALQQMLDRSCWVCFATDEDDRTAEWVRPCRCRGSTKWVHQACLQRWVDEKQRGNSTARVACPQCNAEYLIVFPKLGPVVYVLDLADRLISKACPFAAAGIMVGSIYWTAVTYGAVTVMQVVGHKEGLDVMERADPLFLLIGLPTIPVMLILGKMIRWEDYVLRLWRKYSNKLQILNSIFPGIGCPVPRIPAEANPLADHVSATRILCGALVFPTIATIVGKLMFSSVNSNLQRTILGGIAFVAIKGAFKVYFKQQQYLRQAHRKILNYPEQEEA
Nature of the assay: co-IP; Co-IP of MARCH5 and MPC1 in OC cells; which protein was precipitated and the conditions are not told.

No constants are given. Whether binding was seen depends on the method and setting. In cells and extracts the contact can be indirect. Some binding calls cover weakened binding; strength is not graded here.

B1: mitochondrial pyruvate carrier 1 (MPC1) (protein, UniProt Q9Y5U8 1-109)
chain: MAGALVRKAADYVRSKDFRDYLMSTHFWGPVANWGLPIAAINDMKKSPEIISGRMTFALCCYSLTFMRFAYKVQPRNWLLFACHATNEVAQLIQGGRLIKHEMTKTASA
With B1, the binding entry is listed as “binds”.
